Results are given in words; binding and its absence hold for the method and conditions named. In cells and extracts the contact can be indirect. These calls come from enrichment with a bait or labelling near it, and not all partners need be listed. No binding means not detected with the bait. Values belong to the binder of their own block, whether it stands above or below them.
Target: CNTD1^FH (C-terminally FLAG-HA tagged CNTD1 short form from the Cntd1^FH knock-in allele) (mouse (endogenous in testis))
Experiment: affinity purification with mass spectrometry

B2: MSH4 (protein, UniProt Q99MT2 1-958)
chain: MCCLFLRLRDYSTAHALSLPPCQRCGLQPWSARSHARRTLGVRKAGEMLRQEAASLSSSPRWTPSRRDAPCGRTLASASRPSTEGAMADRSSSSSSSPAPASAPGSSFGNKRSYAIHRAASSFPVGTSSSSARDTTYPHTFRTPLSAGNPQRSGHKSWTPQVGYSATSSAVSAHAPSVIVAVVEGRGLARGEIGMASIDLKSPQIMLSQFADNTTYAKVITKLQVLSPLEIIMSNTACVVGNSTKLFTLITENFKNVNFTTVQRKYFNETKGLEYIEQLCIAEFSSVLMEVQSRYYCLAAAAALLKYVEFIQNSVYAPKSLKIYFQGSEQTAMIDSSSAQNLELLVNNQDYRSNHTLFGVLNYTKTAGGSRRLRSNILEPLVDVETISMRLDCVQELLQDEELFFGLQSVISRFLDTEQLLSVLVQIPKQDTVNAAESKITNLIYLKHTLELVEPLKVTLKNCSTPLLRAYYGSLEDHRFGLILDKIKTVINDDARYMKGCLNMRTQKCYAVRSNISEFLDIARRTYTEIVDDIAGMIAQLAEKYSLPLRTSFSSSRGFFIQMTTDCAALSSDQLPSEFIKISKVKNSYSFTSADLIKMNERCQESLREIYHMTYMIVCKLLSEIYEHIHCLYKLSDTVSMLDMLLSFAHACTLSDYVRPEFTDTLAIKQGWHPILEKISAEKPVANNTYITEGSNVLIITGPNMSGKSTYLKQIALCQIMAQIGSYVPAEYASFRIAAQIFTRISTDDDIETNSSTFMKEMKEIAYILHNANDKSLILIDELGRGTNTEEGIGISYAVCEHLLSIKAFTLFTTHFLELCHLDALYLNVENMHFEVQHVKNTSRNKDAILYTYKLSRGLTEEKNYGLKAAEASSLPSSIVLDARDITTQITRQILQNQRSSPEMDRQRAVYHLATRLVQAARNSQLEPDRLRTYLSNLKKKYAGDFPRAVGLPEKTEE
- binding: no binding

B5: MSH5 (protein, UniProt Q9QUM7 1-833)
chain: MAFRATPGRTPPGPGPRSGIPSASFPSPQPPMAGPGGIEEEDEEEPAEIHLCVLWSSGYLGIAYYDTSDSTIHFMPDAPDHESLKLLQRVLDEINPQSVVTSAKQDEAMTRFLGKLASEEHREPKGPEIILLPSVDFGPEISKQRLLSGNYSFISDSMTATEKILFLSSIIPFDCVLTVRALGGLLKFLSRRRIGVELEDYDVGVPILGFKKFVLTHLVSIDQDTYSVLQIFKSESHPSVYKVASGLKEGLSLFGILNRCRCKWGQKLLRLWFTRPTRELRELNSRLDVIQFFLMPQNLDMAQMLHRLLSHIKNVPLILKRMKLSHTKVSDWQVLYKTVYSALGLRDACRSLPQSIQLFQDIAQEFSDDLHHIASLIGKVVDFEESLAENRFTVLPNIDPDIDAKKRRLIGLPSFLTEVAQKELENLDSRIPSCSVIYIPLIGFLLSIPRLPFMVEASDFEIEGLDFMFLSEDKLHYRSARTKELDTLLGDLHCEIRDQETLLMYQLQCQVLARASVLTRVLDLASRLDVLLALASAARDYGYSRPHYSPCIHGVRIRNGRHPLMELCARTFVPNSTDCGGDQGRVKVITGPNSSGKSIYLKQVGLITFMALVGSFVPAEEAEIGVIDAIFTRIHSCESISLGLSTFMIDLNQVAKAVNNATEHSLVLIDEFGKGTNSVDGLALLAAVLRHWLALGPSCPHVFVATNFLSLVQLQLLPQGPLVQYLTMETCEDGEDLVFFYQLCQGVASASHASHTAAQAGLPDPLIARGKEVSDLIRSGKPIKATNELLRRNQMENCQALVDKFLKLDLEDPTLDLDIFISQEVLPAAPTIL
- binding: no binding

Next, values leading:

- binding: no binding
B1: HEI10 (putative ubiquitin E3 ligase) (protein, UniProt D3Z3K2 1-276)
chain: MSLCEDMLLCNYRKCRIKLSGYAWVTACSHIFCDQHGSGEFSRSPAICPACNSTLSGKLDIVRTELSPSEEYKAMVLAGLRPEVVLDISSRALAFWTYQVHQERLYQEYNFSKAENHLKQMEKMYMQQIQSKNIELTSMKGEVISMKKVLEEYKKKFSDISEKLMERNRQYQKLQGLYDSLRLRNITIASQEGSLEPGMIPQSGVFGFPPGNNSKFSLDHIPVGNQGGGDEDVQFRPFFVCSPTAPEPINNFFSFASPSHEAEQQVCSRAFKAKRI

- binding: no binding
B3: RNF212 (protein, UniProt F6TQD1 1-307)
chain: MASWVFCNRCFQSPHRKSSFSLTSCGHVYCHSCLLKGTKNECVICQAPCQTVLLSKHTNSNIQTFFLGIDGLCKKYSQETSQISEFQEKHRRRLVAFYQEKISQLEESLRKSVLQIKQLQSMRSSQQPAFNKIKNSVSTKPNGYLFLPPNSSLPDRIESMDIDLTPPARKPEMSAGPSRISVISPPQDGRMGSVTCRGPQHLSLTPSHASMTKASRVPPLQMPYKELSPPPASQLSSRATQGPSPSVSSSWTGPPRQPISISGLLQRQCAGSASPRGMDTEKMSPFLPSTPTNLRSVASPWHACVHR

- binding: binds
B4: CDC34 (E2 conjugating enzyme) (enzyme, UniProt Q8CFI2 1-235)
chain: MARPLVPSSQKALLLELKGLQEEPVEGFRVTLVDEGDLYNWEVAIFGPPNTYYEGGYFKARLKFPIDYPYSPPAFRFLTKMWHPNIYETGDVCISILHPPVDDPQSGELPSERWNPTQNVRTILLSVISLLNEPNTFSPANVDASVMYRKWKESKGKDREYTDIIRKQVLGTKVDAERDGVKVPTTLAEYCVKTKAPAPDEGSDLFYDDYYEDGEVEEADSCFGDEEDDSGTEES
